{
  "source": "the supplement of paper PMC7858590",
  "system": "human monocyte-derived macrophages (polarized)",
  "assay": "cell shape (eccentricity) Z-score vs DMSO control; macrophage state: M1-polarized (IFNg + TNFa), cytokines removed before treatment; higher = more elongated, M2-like morphology",
  "conditions": "24 h",
  "note": "± gives the standard deviation of the averaged measurements. The list shows a part of the results. Repeats in this data set agree poorly, so a single value says little.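 Macrophages came from blood monocytes pooled from four healthy donors and grown with M-CSF; these M1-like cells were treated with compounds that had pushed resting macrophages toward the M2-like state in a first-round screen. The Z-score is a t-test comparing cell eccentricity (about 1000 cells per well) with same-row DMSO wells; a compound counts as reprogramming when it passes the M2 cutoff of +6 set by standard cytokine controls (the M1 cutoff is −4).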",
  "data": [
    {"smiles": "C=C(C)[C@@H]1[C@H]2OC(=O)[C@@H]1[C@]1(O)C[C@H]3O[C@]34C(=O)O[C@H]2[C@]14C", "values": [
      {"measurement": "cell shape (Z-score)", "setting": "5 µM", "result": "4.23 ± 8.2"},
      {"measurement": "cell shape (Z-score)", "setting": "10 µM", "result": "5.46 ± 6.6"}
    ]},
    {"smiles": "CCC1(CC)C(=O)NC(=O)NC1=O", "values": [
      {"measurement": "cell shape (Z-score)", "setting": "5 µM", "result": "0.425 ± 2.4"},
      {"measurement": "cell shape (Z-score)", "setting": "10 µM", "result": "0.961 ± 0.58"}
    ]},
    {"smiles": "C[C@]12CC[C@@H](O)C[C@@H]1CC[C@@H]1[C@@H]2CC[C@]2(C)[C@@H](C(=O)CO)CC[C@@H]12", "values": [
      {"measurement": "cell shape (Z-score)", "setting": "5 µM", "result": "0.444 ± 4.1"},
      {"measurement": "cell shape (Z-score)", "setting": "10 µM", "result": "-2.15 ± 4.3"}
    ]},
    {"smiles": "CCn1cc(C(=O)O)c(=O)c2cc3c(cc21)OCO3", "values": [
      {"measurement": "cell shape (Z-score)", "setting": "5 µM", "result": "-0.429 ± 3.7"},
      {"measurement": "cell shape (Z-score)", "setting": "10 µM", "result": "-3.62 ± 4.9"}
    ]},
    {"smiles": "CCNC(=O)C[C@@H]1N=C(c2ccc(Cl)cc2)c2cc(OC)ccc2-n2c(C)nnc21", "values": [
      {"measurement": "cell shape (Z-score)", "setting": "5 µM", "result": "-0.857 ± 1.7"},
      {"measurement": "cell shape (Z-score)", "setting": "10 µM", "result": "-0.849 ± 2.6"}
    ]},
    {"smiles": "CCC(=O)CCCCC[C@@H]1NC(=O)[C@H]2CCCCN2C(=O)[C@H]([C@@H](C)CC)NC(=O)[C@H](Cc2cn(OC)c3ccccc23)NC1=O", "values": [
      {"measurement": "cell shape (Z-score)", "setting": "5 µM", "result": "-2.97 ± 4.8"},
      {"measurement": "cell shape (Z-score)", "setting": "10 µM", "result": "-4.24 ± 4.8"}
    ]},
    {"smiles": "COc1cc([C@@H]2c3cc4c(c(O)c3C[C@H]3COC(=O)[C@@H]32)OCO4)cc(OC)c1OC", "values": [
      {"measurement": "cell shape (Z-score)", "setting": "5 µM", "result": "2.01 ± 3.6"},
      {"measurement": "cell shape (Z-score)", "setting": "10 µM", "result": "2.83 ± 0.33"}
    ]},
    {"smiles": "COc1ccc2c3c([nH]c2c1)[C@H](CC(C)C)N1C(=O)[C@H](CCC(=O)OC(C)(C)C)NC(=O)[C@@H]1C3", "values": [
      {"measurement": "cell shape (Z-score)", "setting": "5 µM", "result": "-0.402 ± 2.4"},
      {"measurement": "cell shape (Z-score)", "setting": "10 µM", "result": "-3 ± 1.7"}
    ]},
    {"smiles": "Clc1ccc(C2=CCCC3CCC2N3)cn1", "note": "(stereo not given)", "values": [
      {"measurement": "cell shape (Z-score)", "setting": "5 µM", "result": "-3.88 ± 6.8"},
      {"measurement": "cell shape (Z-score)", "setting": "10 µM", "result": "0.551 ± 3.4"}
    ]},
    {"smiles": "O=C1/C(=C/c2ccccc2)C[C@@]2(O)[C@H]3Cc4ccc(O)c5c4[C@@]2(CCN3CC2CC2)[C@H]1O5", "values": [
      {"measurement": "cell shape (Z-score)", "setting": "5 µM", "result": "-6.6 ± 0.72"},
      {"measurement": "cell shape (Z-score)", "setting": "10 µM", "result": "-15.3 ± 12"}
    ]},
    {"smiles": "COc1cc2ccc(=O)oc2c2ccoc12", "values": [
      {"measurement": "cell shape (Z-score)", "setting": "5 µM", "result": "0.424 ± 2.3"},
      {"measurement": "cell shape (Z-score)", "setting": "10 µM", "result": "-0.126 ± 2.1"}
    ]},
    {"smiles": "O=C(O)c1nn(Cc2ccc(Cl)cc2Cl)c2ccccc12", "values": [
      {"measurement": "cell shape (Z-score)", "setting": "5 µM", "result": "0.534 ± 3.2"},
      {"measurement": "cell shape (Z-score)", "setting": "10 µM", "result": "-9.02 ± 9.6"}
    ]},
    {"smiles": "CCOC(=O)c1ncn2c1C1CCCN1C(=O)c1cc(OC)ccc1-2", "note": "(stereo not given)", "values": [
      {"measurement": "cell shape (Z-score)", "setting": "5 µM", "result": "-1.29 ± 4.9"},
      {"measurement": "cell shape (Z-score)", "setting": "10 µM", "result": "-1.47 ± 2.9"}
    ]},
    {"smiles": "Clc1ccc(C(OCCN2CCCCC2)c2ccccc2)cc1", "note": "(stereo not given)", "values": [
      {"measurement": "cell shape (Z-score)", "setting": "5 µM", "result": "0.586 ± 1.6"},
      {"measurement": "cell shape (Z-score)", "setting": "10 µM", "result": "-0.552 ± 2"}
    ]},
    {"smiles": "CN(C)C(=S)SSC(=S)N(C)C", "values": [
      {"measurement": "cell shape (Z-score)", "setting": "5 µM", "result": "-5.76 ± 3.9"},
      {"measurement": "cell shape (Z-score)", "setting": "10 µM", "result": "-9.71 ± 12"}
    ]},
    {"smiles": "CC(C)[C@]12O[C@H]1[C@@H]1O[C@]13[C@]1(O[C@H]1C[C@H]1C4=C(CC[C@@]13C)C(=O)OC4)[C@@H]2O", "values": [
      {"measurement": "cell shape (Z-score)", "setting": "5 µM", "result": 11.3},
      {"measurement": "cell shape (Z-score)", "setting": "10 µM", "result": 14.2}
    ]},
    {"smiles": "CC[C@@H]1/C=C/C=C/C[C@H](C)[C@H](O)[C@](C)(O)C(=O)[C@H](C)[C@@H](O)[C@H](C)C(=O)[C@H](C)[C@@H](O)[C@H](C)/C=C/C(=O)O[C@H]2[C@@H](C)[C@@H](CC1)O[C@@]1(CC[C@@H](C)[C@@H](C[C@H](C)O)O1)[C@@H]2C", "values": [
      {"measurement": "cell shape (Z-score)", "setting": "5 µM", "result": "-0.303 ± 1.2"},
      {"measurement": "cell shape (Z-score)", "setting": "10 µM", "result": "-12.3 ± 12"}
    ]},
    {"smiles": "CN1[C@@H]2CC[C@H]1C[C@@H](OC(c1ccccc1)c1ccccc1N)C2", "note": "(stereo not given in full)", "values": [
      {"measurement": "cell shape (Z-score)", "setting": "5 µM", "result": "-1.03 ± 4.7"},
      {"measurement": "cell shape (Z-score)", "setting": "10 µM", "result": "-0.648 ± 4.2"}
    ]},
    {"smiles": "CC(C)=CC1C(C(=O)OCc2coc(Cc3ccccc3)c2)C1(C)C", "note": "(stereo not given)", "values": [
      {"measurement": "cell shape (Z-score)", "setting": "5 µM", "result": "3.62 ± 5.2"},
      {"measurement": "cell shape (Z-score)", "setting": "10 µM", "result": "3.34 ± 3.2"}
    ]},
    {"smiles": "C[C@]12CCC(=O)C=C1CC[C@@H]1C2CC[C@]2(C)C(=O)CCC12", "note": "(stereo not given in full)", "values": [
      {"measurement": "cell shape (Z-score)", "setting": "5 µM", "result": "-1.18 ± 0.91"},
      {"measurement": "cell shape (Z-score)", "setting": "10 µM", "result": "-3.64 ± 3.7"}
    ]},
    {"smiles": "Cc1sc2c(c1C)C(c1ccc(Cl)cc1)=N[C@@H](CC(=O)OC(C)(C)C)c1nnc(C)n1-2", "values": [
      {"measurement": "cell shape (Z-score)", "setting": "5 µM", "result": "-0.787 ± 5.1"},
      {"measurement": "cell shape (Z-score)", "setting": "10 µM", "result": "-1.8 ± 3.2"}
    ]},
    {"smiles": "CCCN(CCC)C1CCc2cccc(O)c2C1", "note": "(stereo not given)", "values": [
      {"measurement": "cell shape (Z-score)", "setting": "5 µM", "result": "-0.719 ± 3"},
      {"measurement": "cell shape (Z-score)", "setting": "10 µM", "result": "-1.11 ± 2.8"}
    ]},
    {"smiles": "COc1cc([C@@H]2c3cc4c(cc3[C@H](OC(C)=O)[C@H]3COC(=O)[C@H]23)OCO4)cc(OC)c1OC", "values": [
      {"measurement": "cell shape (Z-score)", "setting": "5 µM", "result": "2.84 ± 1.3"},
      {"measurement": "cell shape (Z-score)", "setting": "10 µM", "result": "3.45 ± 1.6"}
    ]},
    {"smiles": "O=C1NC(=O)c2c1c1c3ccccc3[nH]c1c1[nH]c3ccccc3c21", "values": [
      {"measurement": "cell shape (Z-score)", "setting": "5 µM", "result": "7.69 ± 4.2"},
      {"measurement": "cell shape (Z-score)", "setting": "10 µM", "result": 8.27}
    ]},
    {"smiles": "CCN1C[C@]2(COC)CC[C@H](OC)[C@]34C1[C@H]([C@H](OC)[C@H]23)[C@@]1(OC(C)=O)C[C@H](OC)[C@]2(O)C[C@@H]4[C@@H]1[C@H]2OC(=O)c1ccc(OC)cc1", "values": [
      {"measurement": "cell shape (Z-score)", "setting": "5 µM", "result": "-0.539 ± 5"},
      {"measurement": "cell shape (Z-score)", "setting": "10 µM", "result": "1.91 ± 5.7"}
    ]},
    {"smiles": "CCCCCCCCCCCCCC(=O)O[C@@H]1[C@@H](C)[C@@]2(O)[C@@H](C=C(CO)C[C@]3(O)C(=O)C(C)=C[C@@H]23)[C@@H]2C(C)(C)[C@]12OC(C)=O", "values": [
      {"measurement": "cell shape (Z-score)", "setting": "5 µM", "result": "-9.03 ± 1.6"},
      {"measurement": "cell shape (Z-score)", "setting": "10 µM", "result": "-8.71 ± 1.7"}
    ]},
    {"smiles": "COc1cc2c(c(OC)c1OC)-c1ccc(OC)c(=O)cc1[C@@H](NC(C)=O)CC2", "values": [
      {"measurement": "cell shape (Z-score)", "setting": "5 µM", "result": "0.558 ± 0.39"},
      {"measurement": "cell shape (Z-score)", "setting": "10 µM", "result": "-0.255 ± 0.013"}
    ]},
    {"smiles": "c1cc2c(c(N3CCNCC3)c1)OCCO2", "values": [
      {"measurement": "cell shape (Z-score)", "setting": "5 µM", "result": "0.201 ± 6.1"},
      {"measurement": "cell shape (Z-score)", "setting": "10 µM", "result": "-0.914 ± 4.9"}
    ]},
    {"smiles": "CNc1ccc2oc(C[C@H]3O[C@@]4(CC[C@H]3C)O[C@H]([C@H](C)C(=O)c3ccc[nH]3)[C@H](C)C[C@H]4C)nc2c1C(=O)O", "values": [
      {"measurement": "cell shape (Z-score)", "setting": "5 µM", "result": "4.85 ± 8.8"},
      {"measurement": "cell shape (Z-score)", "setting": "10 µM", "result": "2.85 ± 6.1"}
    ]},
    {"smiles": "COc1cc([C@@H]2c3cc4c(cc3[C@@H](O)[C@H]3COC(=O)[C@H]23)OCO4)cc(OC)c1O", "values": [
      {"measurement": "cell shape (Z-score)", "setting": "5 µM", "result": "1.24 ± 0.99"},
      {"measurement": "cell shape (Z-score)", "setting": "10 µM", "result": "-1.62 ± 2.7"}
    ]}
  ]
}
